According to PubChem BioAssay AID2685 (National Center for Advancing Translational Sciences (NCATS), 2010):
The list shows a part of the results. The main result of the screen is listed elsewhere. These columns were measured beside it and carry no call. The list favours compounds with an active or inconclusive main result. Potencies come from curve fits of mixed quality, noted in brackets.

Experiment: qHTS Assay for Lipid Storage Modulators in Drosophila S3 Cells;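 as to cell number change: cells counted by Cell Tracker Red CMTPX staining in the red channel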
Details: BODIPY lipid droplet fluorescence, 18-24 h; for cell number change: measured here: cell count max response, cells fed with added oleic acid
Outline: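 Drosophila S3 cells loaded with oleic acid (400 uM, as added) and compounds at several concentrations; lipid droplets imaged by 488-nm laser-scanning cytometry, 500–530 nm intensity and object ratio to cell channel. Percent activity normalized to 20 uM Triacsin C.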

[1] = measured here: cell number channel AC50, cells fed with added oleic acid
[2] = measured here: lipid fluorescence (Fed channel) AC50, cells fed with added oleic acid

| Structure (SMILES) | cell number change [%] | AC50 [1] | AC50 [2] |
| --- | --- | --- | --- |
| O=C1CCN(CCc2ccccc2)CCN1CCOc1ccccc1 | 19.1 | 0.00461 µM [rising, full curve, poor fit] | 0.92 µM [rising, full curve] |
| COCCNC(=O)c1c(N)n(/N=C/c2cccs2)c2nc3ccccc3nc12 | 18.6 |  | 0.58 µM [rising, single point] |
| CC(Oc1ccc(F)cc1)C(=O)Nc1cc(S(=O)(=O)N2CCCCC2)ccc1N1CCOCC1 (stereo not drawn) |  | 4.61 µM [rising, partial curve, poor fit] |  |
| CC1CCc2cc(F)ccc2N1C(=O)CCC(=O)O (stereo not drawn) | -64.4 | 23.1 µM [falling, partial curve] | 3.66 µM [falling, full curve] |
| CCOc1ccc(-c2nc3n(c(=O)c2C#N)CCCS3)cc1 | -7.36 |  | 1.64 µM [rising, full curve, poor fit] |
| O=C(Nc1cccc2ncccc12)C(Cl)(Cl)Cl |  | 0.731 µM [rising, single point] |  |
| CCSc1nc2cc(C(=O)OC)ccc2c(=O)n1CC | -31.5 | 8.2 µM [falling, partial curve] | 13 µM [falling, partial curve] |
| CCOC(=O)N1CCN(C(=O)c2ccc3c(SCC(=O)O)c4c(nc3c2)CCC4)CC1 | 14.5 |  |  |
| CCOC(=O)C(Oc1ccc2c(-c3ccccc3)cc(=O)oc2c1)c1ccccc1 (stereo not drawn) | -0.611 | 3.26 µM [rising, partial curve] | 4.61 µM [rising, partial curve] |
| CC(C)NC(=O)N1CCC(c2nc3ccccc3s2)CC1 |  |  | 6.51 µM [rising, partial curve] |
| CCOc1ccc(C(=O)NC(C)CCc2ccccc2)cc1 (stereo not drawn) | -0.324 |  | 32.6 µM [falling, single point] |
| COc1ccc(C(=O)N/N=C/C2CC=CCC2)cc1OC (stereo not drawn) | -5.21 |  |  |
| CC(C)CN(C(=O)Cn1nnc(-c2ccc(F)cc2)n1)C1CCS(=O)(=O)C1 (stereo not drawn) | 34.9 | 14.6 µM [rising, single point] | 16.4 µM [rising, single point] |
| CCOC(=O)c1sc(=S)n(C)c1NC(=O)c1ccc(C(C)(C)C)cc1 | -39.5 | 18.4 µM [falling, partial curve, poor fit] | 10.3 µM [falling, partial curve] |
| Cc1ccc(/C([O-])=C(/C(=S)NCc2ccccc2)[n+]2cccc(CO)c2)cc1[N+](=O)[O-] | 31 | 29.1 µM [rising, single point] |  |
| O=[N+]([O-])c1ccc(N/N=C/c2ccccc2)c(F)c1 | -7.38 |  | 0.146 µM [falling, full curve, poor fit] |
| O=C(COC(=O)c1ccc([N+](=O)[O-])s1)Nc1ccc(F)cc1 | 9.17 |  | 0.164 µM [falling, full curve, poor fit] |
| CSc1ncc(C(=O)Nc2ccccc2)cn1 | -2.11 |  | 32.6 µM [rising, single point] |
| CC(C)(C)NC(=O)c1cnn(-c2ccccc2)c1NC(=O)c1ccccc1 | 15.2 |  | 0.116 µM [falling, full curve, poor fit] |
| CC1(C)C(=O)OC(c2cccc([N+](=O)[O-])c2)C2(CCCCC2)C1=O (stereo not drawn) | -10.1 |  | 29.1 µM [rising, single point] |

| Structure (SMILES) | cell number change [%] | AC50 [1] | AC50 [2] |
| --- | --- | --- | --- |
| O=C1Nc2ccc(Br)cc2/C1=C/C1CC=CCC1 (stereo not drawn) | -64.5 | 18.4 µM [falling, single point] | 20.6 µM [falling, single point] |
| CC(C)(C)OC(=O)N1CCC(CC2CC(c3ccccc3)=NO2)(C(=O)NCc2ccccc2)CC1 (stereo not drawn) | -24 |  | 0.231 µM [rising, full curve] |
| CSCc1c(C(=O)NC2CCCc3ccccc32)oc2ccccc12 (stereo not drawn) | 4.51 |  | 20.6 µM [falling, single point] |
| COc1cc(OC)c(NC(=O)Nc2ccc(OC)c(OC)c2)cc1Cl | -18.8 |  | 23.1 µM [rising, single point] |
| CN(Cc1nc(-c2ccc(Cl)cc2)no1)C(=O)CCN1C(=O)[C@H]2CC=CC[C@H]2C1=O | 2.09 |  |  |
| CC1CCCN(C(=O)CN2C(=O)C(C)Oc3ccccc32)C1 (stereo not drawn) | 20.1 |  |  |
| COc1ccc(OC)c(/C=c2\sc3nc(-c4cccs4)nn3c2=O)c1 | -6.16 | 6.51 µM [falling, single point] | 0.82 µM [falling, full curve] |
| Nc1nc(SCc2c(Cl)cccc2Cl)n[nH]1 |  | 0.00461 µM [rising, full curve, poor fit] |  |
| CCOC(=O)C1C(=O)OC(C)(C)C1C(CC)C(=O)c1c(C)cc(C)cc1C (stereo not drawn) | 17.3 |  | 29.1 µM [rising, single point] |
| COC(=O)c1ccc(NC(=O)c2ccc3nsnc3c2)cc1 | 6.58 |  | 6.31 µM [rising, single point] |
| CC(=O)N1CCc2cc(S(=O)(=O)NC3CCCc4ccccc43)ccc21 (stereo not drawn) | -25.2 |  | 8.2 µM [falling, partial curve] |
| CN(Cc1ccccc1)c1ccc(C(CC(N)=O)NC(=O)Cc2cccc3ccccc23)cc1[N+](=O)[O-] (stereo not drawn) | -13.8 |  | 2.59 µM [rising, partial curve, poor fit] |
| CN1C(=O)N(C)C2(c3ccccc3)Nn3c(s/c(=C/c4ccccc4)c3=O)=NC12c1ccccc1 (stereo not drawn) | -2.26 |  | 29.1 µM [falling, partial curve] |
| CC(NS(=O)(=O)c1ccc(Cl)cc1)C(=O)N1CCOCC1 (stereo not drawn) | -36.8 | 0.517 µM [falling, full curve, poor fit] |  |
| CC(C)(C)NC(=O)CSc1ncnc2c1cnn2-c1ccccc1 | -18.6 |  | 9.2 µM [falling, partial curve] |
| COc1cccc(NC(=O)CCS(=O)(=O)c2ccc(Br)cc2)c1 |  | 6.51 µM [rising, single point] | 6.51 µM [rising, single point] |
| O=C(NCc1cccc(Cl)c1)c1ccc2nc(N3CCOCC3)sc2c1 | -5.69 |  |  |
| O=C(O)Cn1nnn(-c2ccccc2)c1=S | -35.5 | 0.058 µM [falling, full curve] | 1.16 µM [falling, full curve] |
| COc1ccccc1C(=O)NC(=S)Nc1ccc(NC(=O)c2ccco2)cc1 | -56.7 | 20.6 µM [falling, single point] |  |
| O=C(Nc1cccnc1)C1(c2ccccc2)CCCC1 | -4.69 |  |  |

Of the compounds above, 2 contain bromine:

| Structure (SMILES) | cell number change [%] | AC50 [1] | AC50 [2] |
| --- | --- | --- | --- |
| O=C1Nc2ccc(Br)cc2/C1=C/C1CC=CCC1 (stereo not drawn) | -64.5 | 18.4 µM [falling, single point] | 20.6 µM [falling, single point] |
| COc1cccc(NC(=O)CCS(=O)(=O)c2ccc(Br)cc2)c1 |  | 6.51 µM [rising, single point] | 6.51 µM [rising, single point] |

Remaining list, next part:

| Structure (SMILES) | cell number change [%] | AC50 [1] | AC50 [2] |
| --- | --- | --- | --- |
| O=C1c2cccnc2C(O)N1Cc1ccccc1 (stereo not drawn) | -63.1 | 20.6 µM [falling, partial curve, poor fit] |  |
| COc1cccc(C(c2c(O)nc(SC)n(C)c2=O)c2c(O)nc(SC)n(C)c2=O)c1 | -6.36 |  | 4.61 µM [rising, partial curve] |
| Cc1nc(NC(=O)C2CCCC2)sc1Cc1ccc2c(c1)OCO2 | 1.1 |  | 0.58 µM [falling, single point] |
| O=C(CSc1nc2ccccc2[nH]1)NCCc1ccc(Cl)cc1 | -16.7 |  |  |
| CCSc1nc(N2CCOCC2)c2c(c1C#N)CCCC2 | -6.29 |  | 29.1 µM [rising, single point] |
| O=C(c1ccco1)N1CCN(C(=O)c2cc(Cl)nc3ccccc23)CC1 | 50 | 29.1 µM [rising, single point] | 29.1 µM [rising, single point] |
| CN1C(=O)/C(=C/c2cc3c(cc2Br)OCO3)NC1=S |  | 0.731 µM [rising, full curve] | 0.517 µM [rising, full curve] |
| CCCCn1c(CNC(=O)Cc2ccccc2)nc2ccccc21 | 46.4 | 20.6 µM [rising, single point] | 20.6 µM [rising, partial curve] |
| COc1ccc(C2C(C(=O)O)c3ccccc3C(=O)N2Cc2ccco2)cc1 (stereo not drawn) | -44.9 | 10.3 µM [falling, partial curve] | 25.9 µM [falling, single point] |
| O=C1CCCc2c1nc(-c1ccccc1F)n2O | -33.1 | 32.6 µM [falling, single point] |  |
| CC(C)(C)c1ccc(/C=C2\Oc3cc(O)ccc3C2=O)cc1 | -36.9 | 0.651 µM [falling, partial curve] | 5.17 µM [falling, full curve, poor fit] |
| CC(C)C(NC(=O)CN1C(=O)c2cccc3cccc1c23)C(C)C | -23.5 |  | 6.51 µM [falling, partial curve] |
| Cn1c(=O)c2c(nc(NCCc3ccccc3)n2CC(=O)NCCc2ccccc2)n(C)c1=O |  | 1.64 µM [rising, partial curve] | 1.64 µM [rising, full curve] |
| CCOC(=O)CNC(=O)C1(/C=C/c2ccccc2)CC(=O)N1c1ccc(OC)cc1 (stereo not drawn) | -11.7 |  | 0.731 µM [falling, partial curve, poor fit] |
| Cc1ccc(S(=O)(=O)NCCN2CCOCC2)cc1C | -4.45 |  | 0.461 µM [falling, single point] |
| CC(C)c1ccccc1NC(=O)COC(=O)COc1ccccc1[N+](=O)[O-] |  |  | 29.1 µM [rising, single point] |
| CN(CCc1cn[nH]c1)Cc1nc(C(c2ccccc2)c2ccccc2)no1 | -18.7 |  | 14.6 µM [falling, partial curve] |
| Cc1cc(C)n(/N=C/c2ccc(C(C)C)cc2)c(=O)c1C#N | 30.2 | 13 µM [rising, partial curve, poor fit] | 14.6 µM [rising, partial curve, poor fit] |
